Results are given in words; binding and its absence hold for the method and conditions named. Some binding calls cover weakened binding; strength is not graded here.
B1: W305042-1.135.2-uIgG1L (antibody, V domains shown)
VH: EVQLVQSGAEVKKPGESLKISCKASGYSFTTYWIGWVRQMPGKGLELMGIIYPYDSDTRYSPSFQGQVTISADKSINTAYLQWSSLKASDTAMYYCARITGGYLFDYWGQGILVTVSS
VL: QSALTQPPSASGSPGQSVTISCTGTSSDVGGYNYVSWYQQHPGKAPKLMIYEVTKRPSGVPDRFSGSKSGNTASLTVSGLQAEDEADYYCTSYAGSNKYVFGTGTKVTVLG
B2: W308051-T3U5.E17-61.uIgG4V322 (bispecific antibody)
heavy 1: QVQLVQSGAEVKKPGSSVKVSCKASGFAFTDYYIHWVRQAPGQGLEWMGWISPGNVNTKYNENFKGRVTITADKSTSTAYMELSSLRSEDTAVYYCARDGYSLYYFDYWGQGTLVTVLEDLKNVFPPEVAVFEPSECEISHTQKATLVCLATGFYPDHVELSWWVNGKEVHSGVCTDPQPLKEQPALQDSRYALSSRLRVSATFWQNPRNHFRCQVQFYGLSENDEWTQDRAKPVTQIVSAEAWGRYGPPCPPCPAPEAAGGPSVFLFPPKPKDTLMISRTPEVTCVVVDVSQEDPEVQFNWYVDGVEVHNAKTKPREEQFNSTYRVVSVLTVLHQDWLNGKEYKCKVSNKGLPSSIEKTISKAKGQPREPQVYTLPPCQEEMTKNQVSLWCLVKGFYPSDIAVEWESNGQPENNYKTTPPVLDSDGSFFLYSRLTVDKSRWQEGNVFSCSVMHEALHNHYTQKSLSLSLG
light 1: DIVMTQSPDSLAVSLGERATINCKSSQSLLNSRTRKNYLAWYQQKPGQPPKLLIYWASTRQSGVPDRFSGSGSGTDFTLTISSLQAEDVAVYYCTQSHTLRTFGGGTKVEIKPDIQNPDPAVYQLRDSKSSDKSVCLFTDFDSQTQVSQSKDSDVYITDKCVLDMRSMDFKSNSAVAWSQKSDFACANAFQNSIIPEDTFFCS
heavy 2: EVQLVQSGAEVKKPGESLKISCKASGYSFTTYWIGWVRQMPGKGLELMGIIYPYDSDTRYSPSFQGQVTISADKSINTAYLQWSSLKASDTAMYYCARITGGYLFDYWGQGILVTVSSASTKGPSVFPLAPCSRSTSESTAALGCLVKDYFPEPVTVSWNSGALTSGVHTFPAVLQSSGLYSLSSVVTVPSSSLGTKTYTCNVDHKPSNTKVDKRVESKYGPPCPPCPAPEAAGGPSVFLFPPKPKDTLMISRTPEVTCVVVDVSQEDPEVQFNWYVDGVEVHNAKTKPREEQFNSTYRVVSVLTVLHQDWLNGKEYKCKVSNKGLPSSIEKTISKAKGQPREPQVCTLPPSQEEMTKNQVSLSCAVKGFYPSDIAVEWESNGQPENNYKTTPPVLDSDGSFFLVSRLTVDKSRWQEGNVFSCSVMHEALHNHYTQKSLSLSLG
light 2: QSALTQPPSASGSPGQSVTISCTGTSSDVGGYNYVSWYQQHPGKAPKLMIYEVTKRPSGVPDRFSGSKSGNTASLTVSGLQAEDEADYYCTSYAGSNKYVFGTGTKVTVLGQPKAAPSVTLFPPSSEELQANKATLVCLISDFYPGAVTVAWKADSSPVKAGVETTTPSKQSNNKYAASSYLSLTPEQWKSHKSYSCQVTHEGSTVEKTVAPTECS

Legend:
[1] = target: full-length cynomolgus PSMA on Flp-in CHO cells (WBP3xx042-FlpinCHO.cPro1.B7) (cynomolgus); assay: flow cytometry on cynomolgus PSMA-expressing CHO cells
[2] = target: Cyno PSMA.ECD.His (Acro) (cynomolgus); assay: SPR (Biacore 8K)
[3] = target: Cyno PSMA.ECD.His (Acro) (cynomolgus); assay: ELISA, cynomolgus PSMA ECD captured by anti-His antibody
[4] = target: full-length cynomolgus PSMA on Flp-in CHO cells (WBP3xx042-FlpinCHO.cPro1.B7) (cynomolgus); assay: flow cytometry on FlpInCHO-cyno PSMA cells
[5] = target: Cyno PSMA.ECD.His (Acro) (cynomolgus); assay: ELISA, coated cynomolgus PSMA protein (His tag)

Row | Binder | binding [1] | binding [2] | binding [3] | binding [4] | binding [5]
1 | B1 | binds | binds | binds | – | –
2 | B2 | – | – | – | binds | binds

Reference: patent US20250277054A1
